# Results of single-concentration screens

Measurements from “University of Dundee, Small-Polar-MMV Screening Library” (2021), ChEMBL document CHEMBL3988442.

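Phenotypic screen: M. tuberculosis growth, cholesterol and DPPC medium, 4 days; the read-out is not stated. Concentration: 50 µM. Direction is inferred from retests: higher values go with more growth inhibition. Of about 69,000 compounds tested this way, about 370 (0.54%) reached 50% or more in at least one test.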

Values are the deposited “Percent Effect”, in %.
The record does not define 0% and 100%; most values in the screen are far below 50% and negative numbers occur (in some assays of this library far below -100).
Compounds were drawn at random from those tested, without regard to their results.
Two or more numbers in one place are separate tests of the same structure; such repeats can differ widely.

Cc1cccc(CN2CC3(CCNCC3)OCC2=O)n1 read -3.964% and 10.69%. With COc1cccc(-c2cc(NCc3nc(C)cs3)n(C)n2)c1 the screen gave 5.75% and 4.164%. For Cc1ccc(CNC2(Cc3cc(CC(C)C)on3)COC2)o1 the result was 2.043%. With CC(=O)N(Cc1ncc(C)o1)C1CCN(Cc2csc(C)n2)C1 (stereo unspecified) the screen gave -10.62%.

O=C(O)C(F)(F)F.O=C(O)C(F)(F)F.[H][C@@]12COC[C@]1(CNC(=O)c1ccsc1)CN(Cc1cccnc1)C2 gave -6.194%. With [H][C@]12C[C@@H](CNC(=O)c3ccsc3)O[C@]1([H])CN(C(=O)CO)C2 the screen gave -18.41%. Result for CCc1noc(C(C)N2CCN(CC(C)C)CC2)n1 (stereo unspecified) was -11.22%. With CCCn1nc2c(cc1=O)CN(CC(=O)Nc1nnc(C)s1)CC2 the screen gave 9.229%.

For CC1CCCN(C(=O)c2ccc(N(C)Cc3cnn(C)c3)nc2)C1 (stereo unspecified) the result was -17.71%. FC(F)(F)CCc1ccnc(N2CCN(Cc3ccncc3)CC2)n1 read 10.6%. O=C(c1cccnc1)N(CCO)Cc1cc(Br)ccc1F gave -27.58%. For CC(=O)N1CCCC2(CCN(c3ccccc3)C2=O)C1 (stereo unspecified) the result was -17.71%.

CC(C)OCc1ccccc1CNC(=O)C(C)(C)C gave -21.42% and -0.3929%. Cc1c(F)cc(C(=O)O)cc1S(=O)(=O)Nc1cccc(C(F)F)c1 read -0.5569%. For CCc1cc(N2CCC(N[C@@H]3CS(=O)(=O)C[C@H]3O)CC2)nc(N(C)C)n1 the result was 4.329%. O=C1CC(Cc2ccc(NC(=O)c3cccc(F)c3)cc2)C(=O)N1 (stereo unspecified) gave 1.986% and 6.835%.

For CCC(=O)N1CCC2(CC1)CC(Oc1ccccc1)CO2 (stereo unspecified) the result was -7.517%. With CN1C(=O)C2(CC(=O)Nc3c2cnn3C(C)(C)C)c2ccccc21 (stereo unspecified) the screen gave -17.74%. Result for COc1cccc(-c2nc(CNC(C)Cn3cccn3)cs2)c1 (stereo unspecified) was -16.39%. Result for [H][C@]12CN(Cc3ccccn3)CCN1C[C@@H](c1ccccc1)[C@@H]2C(=O)NC was 7.037%.

For CN(C)CCCNc1ncnc2cccc(F)c12 the result was -18.02%. With CCCOc1ccccc1NCC(=O)Nc1ccc(CC)cc1 the screen gave -0.3453%. Result for Cc1cccc(C(=O)N2CCC(c3n[nH]c(C4CC4)n3)CC2)c1 was -22.99%. Result for N#Cc1ccc(N2CCN(c3ncccn3)CC2)c(C(F)(F)F)c1 was -0.2763%.

For CNC(=O)C1(C)CCCN1Cc1cnn(C)c1C (stereo unspecified) the result was 0.5646%. CC(C)CN(CC(O)c1ccc(F)cc1)C(=O)c1cc[nH]n1 (stereo unspecified) read -10.02%. With O=C(O)c1ccc(N2CCC(Oc3cccc(F)c3)CC2)nc1 the screen gave -0.4219%. For O=C(NCCCO)NCCc1cc(F)ccc1F the result was -1.539% and -7.042%.

Result for CCCn1[nH]cc/c1=N\C(=O)CN1CCn2c(nnc2C2CC2)C1 was -12.75%. For CC(O)CN1CCN(Cc2coc(-c3cccc(Cl)c3)n2)CC1 (stereo unspecified) the result was -25.09%. Cc1noc(C)c1CCCNC(=O)C1CCN(C(C)C)CC1 gave 1.42%. With Cn1ccc(CN2CCCN(c3nccs3)CC2)cc1=O the screen gave 3.913%.

Result for CCN(CC1CCOC1)C(=O)c1ccccc1NS(=O)(=O)CC (stereo unspecified) was -12.77%. With O=C(O)C(F)(F)F.O=C(O)C(F)(F)F.O=C1N(c2cccnc2)CCC12CCCN(Cc1ccoc1)C2 (stereo unspecified) the screen gave -10.71%. COCCN(CCOC)S(=O)(=O)N(C)Cc1ccncc1 read -2.775%. CC(C)c1noc(OCc2cccc(C#N)c2)n1 read -3.17%.

Result for Cc1cc(C2CCCN2Cc2nc(-c3ccco3)no2)on1 (stereo unspecified) was -12.98%.